# Assay results from PubChem BioAssay AID292 (DTP/NCI, 2004).
# The list does not hold the whole screen: it is rich in T/C values a quarter to a half above the control, in often repeated tests (any T/C) and in doses without a T/C. Other doses and runs of a compound stand elsewhere. T/C: endpoint of the treated group in % of that of the vehicle group. Some entries give survivors of the animals treated and no T/C: the source files T/C as zero there, which appears to mark a toxic dose or a test without result, not a measured value. Some doses without a T/C left all or most animals alive at the check, yet need not have been tolerated: survival well below the control is almost never listed, so the zero probably covers shortened survival too. Counts of survivors are from the toxicity check (mostly the fifth day) where no day follows; animals may have died later. Schedules are NCI's codes, read here as Q, the interval in days (D) or hours (H), X, the number of doses. Some entries hold several experiments; the results are listed from low to high. Some structures stand for samples that the source files as different forms (salt, stereo form or complex); doses refer to the form tested. Where survival is the endpoint, this PubChem deposit counts one and a half times the control or more as active, and values a quarter to a half above the control carry no call in these data; other NCI protocols may use other cut-offs. Some T/C values are followed by the survivors on the day toxicity was checked, most often the fifth; where none is given, no animal had died by that day.
# Test system: B6C3F1 mice, ip Sarcoma M5076, median survival T/C
# Experiment: NCI In Vivo Anticancer Drug Screen. Data for tumor model Sarcoma M5076 (intraperitoneal) in B6C3F1 mice
# Conditions: T/C endpoint: median survival time, schedule: Q04DX004 (ip), higher T/C = longer survival
# In short: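 Survival measured in treated (T) and vehicle control (C) mice with transplantable tumour; result given as T divided by C.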
# [1] = dose: 800.0 mg/kg/injection, vehicle: Klucel (hydroxypropylcellulose) (HPC)
# [2] = dose: 400.0 mg/kg/injection, vehicle: Klucel (hydroxypropylcellulose) (HPC)
# [3] = dose: 100.0 mg/kg/injection, vehicle: saline with Tween-80
# [4] = dose: 12.5 mg/kg/injection, vehicle: saline
# [5] = dose: 200.0 mg/kg/injection, vehicle: saline
# [6] = dose: 400.0 mg/kg/injection, vehicle: saline with Tween-80
# [7] = dose: 800.0 mg/kg/injection, vehicle: saline with Tween-80
# [8] = dose: 268.0 mg/kg/injection, vehicle: Klucel (hydroxypropylcellulose) (HPC)
# [9] = dose: 400.0 mg/kg/injection, vehicle: saline
# [10] = dose: 800.0 mg/kg/injection, vehicle: saline
smiles,measurement,setting,value
CCc1nc(N)nc(N)c1-c1ccc(Cl)c(N=[N+]=[N-])c1,survivor count,"dose: 67.0 mg/kg/injection, vehicle: water",0 of 10 on day 14
same,survivor count,"dose: 134.0 mg/kg/injection, vehicle: water",0 of 10 on day 14
same,T/C,"dose: 268.0 mg/kg/injection, vehicle: distilled water + Tween-80",141 % of control
CC(=O)C1C(=O)C(=O)N(c2ccccc2C)C1=O (configuration not stated),survivor count,[1],6 of 10 on day 14
CN(C)CN1C(=O)S/C(=C2\C(=O)N(CN(C)C)c3ccccc32)C1=O,survivor count,[2],0 of 10 on day 14
same,survivor count,[1],0 of 10 on day 14
N#Cc1c(N)[nH]c2ccc(Sc3ccccc3)cc12,T/C,[3],126 % of control [9 of 10 alive on day 14]
same,T/C,"dose: 167.0 mg/kg/injection, vehicle: saline with Tween-80",125 % of control [9 of 10 alive on day 14]
same,survivor count,"dose: 278.0 mg/kg/injection, vehicle: saline with Tween-80",6 of 10 on day 14
CN=NN(C)C(=O)NC,T/C,[4],136 % of control
same,T/C,"dose: 18.0 mg/kg/injection, vehicle: saline, evaluated on day 37",131 % of control
same,T/C,"dose: 18.0 mg/kg/injection, vehicle: saline, evaluated on day 60",133 % of control
same,T/C,"dose: 30.0 mg/kg/injection, vehicle: saline",149 % of control
same,survivor count,[5],0 of 10 on day 14
O=C(O)c1nn(-c2ccccc2-c2n[nH]c(=O)[nH]c2=O)c(=O)[nH]c1=O,survivor count,[6],10 of 10 on day 14
same,survivor count,[7],8 of 10 on day 14
CNC(=S)SC1=NS(=O)(=O)c2ccccc2N1,survivor count,"dose: 480.0 mg/kg/injection, vehicle: Klucel (hydroxypropylcellulose) (HPC)",0 of 10 on day 14
same,T/C,[1],125 % of control [7 of 10 alive on day 14]
same,survivor count,[1],0 of 10 on day 14
same,survivor count,"dose: 1333.33 mg/kg/injection, vehicle: Klucel (hydroxypropylcellulose) (HPC)",0 of 10 on day 14
COc1nc(C(Cl)(Cl)Cl)c(Cl)c(OC)c1Cl,T/C,"dose: 200.0 mg/kg/injection, vehicle: Klucel (hydroxypropylcellulose) (HPC)",127 % of control
same,T/C,[8],128 % of control
same,survivor count,[8],5 of 10 on day 14
same,T/C,[2],149 % of control
same,survivor count,[2],0 of 10 on day 14
same,survivor count,"dose: 600.0 mg/kg/injection, vehicle: Klucel (hydroxypropylcellulose) (HPC)",0 of 10 on day 14 and 3 of 10 on day 14
same,survivor count,[1],1 of 10 on day 14
COc1cccc2c1C(=O)C1=C(C2=O)c2c(O)cc(CO)cc2C(O)C1O (configuration not stated),survivor count,[3],0 of 10 on day 14
CN(C)CCNC1=CC(=O)c2ccccc2C1=O,survivor count,"dose: 200.0 mg/kg/injection, vehicle: distilled water + Tween-80",3 of 10 on day 14
same,survivor count,"dose: 400.0 mg/kg/injection, vehicle: distilled water + Tween-80",0 of 10 on day 14
same,survivor count,"dose: 800.0 mg/kg/injection, vehicle: distilled water + Tween-80",0 of 10 on day 14
C/C(=N\Nc1cc(C)nc2ccc(C)cc12)c1cn(C)n(-c2ccccc2)c1=O,survivor count,"dose: 62.5 mg/kg/injection, vehicle: Klucel (hydroxypropylcellulose) (HPC)",10 of 10 on day 14
same,survivor count,"dose: 125.0 mg/kg/injection, vehicle: Klucel (hydroxypropylcellulose) (HPC)",10 of 10 on day 14
same,survivor count,"dose: 250.0 mg/kg/injection, vehicle: Klucel (hydroxypropylcellulose) (HPC)",10 of 10 on day 14
same,survivor count,"dose: 500.0 mg/kg/injection, vehicle: Klucel (hydroxypropylcellulose) (HPC)",6 of 10 on day 14
Cc1ccc2c(c1)n([O-])c1cc(Cl)ccc1[n+]2=O,T/C,"dose: 200.0 mg/kg/injection, vehicle: saline with Tween-80",127 % of control
same,T/C,"dose: 240.0 mg/kg/injection, vehicle: saline with Tween-80",125 % of control
same,T/C,[6],130 % of control
same,survivor count,[6],7 of 10 on day 14
same,T/C,"dose: 666.67 mg/kg/injection, vehicle: saline with Tween-80",130 % of control
same,survivor count,"dose: 1111.12 mg/kg/injection, vehicle: saline with Tween-80",6 of 10 on day 14
O=NNc1ccccn1,T/C,[4],130 % of control
same,survivor count,"dose: 50.0 mg/kg/injection, vehicle: saline",1 of 10 on day 14
same,survivor count,"dose: 83.33 mg/kg/injection, vehicle: saline",0 of 10 on day 14
same,survivor count,"dose: 138.89 mg/kg/injection, vehicle: saline",0 of 10 on day 14
CC(/C=C/C1OC(=O)C=CC1C)=C\C(C)C/C=C/C(C)=C/C(CO)C(=O)C(C)C(O)C(C)C/C(C)=C/C(=O)O (configuration not stated),T/C,"dose: 125.0 micrograms/kg/injection, vehicle: other",132 % of control
same,T/C,"dose: 250.0 micrograms/kg/injection, vehicle: other",129 % of control
Cc1cc(O)c2c(c1O)C(=O)C13C(=C2O)C(=O)C2C(O)C1C1C(O)C3C(=O)C3=C(O)c4c(O)cc(C)c(O)c4C(=O)C321 (configuration not stated),survivor count,"dose: 25.0 mg/kg/injection, vehicle: saline with Tween-80",0 of 10 on day 14
CN(C)N=Nc1ccc(C(=O)O)cc1,survivor count,[9],0 of 10 on day 14 and 4 of 10 on day 14
same,survivor count,[10],0 of 10 on day 14
COc1ccccc1-n1cc[n+](C)c1/C=N/O,survivor count,"dose: 100.0 mg/kg/injection, vehicle: saline",0 of 10 on day 14
same,survivor count,[5],0 of 10 on day 14
same,survivor count,[9],0 of 10 on day 14
NC(=O)c1[nH]cnc1O,survivor count,[6],6 of 10 on day 14
same,survivor count,[7],3 of 10 on day 14 and 4 of 10 on day 14
OCC(O)C(O)C(O)C(O)CO (configuration not stated),survivor count,"dose: 150.0 mg/kg/injection, vehicle: saline",10 of 10 on day 14
COc1ccc(C[C@H](N)C(=O)NC2C(CO)OC(n3cnc4c(N(C)C)ncnc43)C2O)cc1 (some centres not stated),survivor count,[10],0 of 10 on day 14
Nc1ccccc1Sc1cc(Cl)nnc1Cl,survivor count,[7],9 of 10 on day 14
O=C(CN1CCOCC1)Nc1nc(-c2ccc(Cl)cc2)cs1,survivor count,"dose: 200.0 mg/kg/injection, vehicle: DMSO",9 of 10 on day 14
same,survivor count,"dose: 400.0 mg/kg/injection, vehicle: DMSO",10 of 10 on day 14
same,survivor count,"dose: 800.0 mg/kg/injection, vehicle: DMSO",10 of 10 on day 14
same,survivor count,"dose: 1200.0 mg/kg/injection, vehicle: DMSO",10 of 10 on day 14
